Reference: PMC2852416, “Modular Insulators: Genome Wide Search for Composite CTCF/Thyroid Hormone Receptor Binding Sites”
Results are given in words; binding and its absence hold for the method and conditions named. Binding seen in cells or lysates may run through a third protein. For some of these results: A result given as binding can be weak or reduced; the word gives no strength. Sequences can lack the tags named with a protein.

Columns and labels:
Experiment in all cases: pull-down; GST fusion protein on glutathione-sepharose beads incubated with [35S]methionine-labeled in vitro translated protein in 200 µl binding buffer, 2 h at 4°C; washed 3 times; SDS-PAGE and fluorography; only the target purified
[1] = molecular target: GST fusion with the ligand binding domain (LBD) of RXR
[2] = molecular target: GST fusion with the DNA binding domain (DBD) of TR (human)
[3] = molecular target: GST fusion with the ligand binding domain (LBD) of TR (human)
[4] = molecular target: GST fusion with the DNA binding domain (DBD) of RXR

binding [1]: no binding
binding [2]: binds
binding [3]: binds weakly
binding [4]: binds
B1: CTCF (labelled prey in the pull-downs with GST receptor domains) (protein, UniProt P49711 1-727)
chain: MEGDAVEAIVEESETFIKGKERKTYQRRREGGQEEDACHLPQNQTDGGEVVQDVNSSVQMVMMEQLDPTLLQMKTEVMEGTVAPEAEAAVDDTQIITLQVVNMEEQPINIGELQLVQVPVPVTVPVATTSVEELQGAYENEVSKEGLAESEPMICHTLPLPEGFQVVKVGANGEVETLEQGELPPQEDPSWQKDPDYQPPAKKTKKTKKSKLRYTEEGKDVDVSVYDFEEEQQEGLLSEVNAEKVVGNMKPPKPTKIKKKGVKKTFQCELCSYTCPRRSNLDRHMKSHTDERPHKCHLCGRAFRTVTLLRNHLNTHTGTRPHKCPDCDMAFVTSGELVRHRRYKHTHEKPFKCSMCDYASVEVSKLKRHIRSHTGERPFQCSLCSYASRDTYKLKRHMRTHSGEKPYECYICHARFTQSGTMKMHILQKHTENVAKFHCPHCDTVIARKSDLGVHLRKQHSYIEQGKKCRYCDAVFHERYALIQHQKSHKNEKRFKCDQCDYACRQERHMIMHKRTHTGEKPYACSHCDKTFRQKQLLDMHFKRYHDPNFVPAAFVCSKCGKTFTRRNTMARHADNCAGPDGVEGENGGETKKSKRGRKRKMRSKKEDSSDSENAEPDLDDNEDEEEPAVEIEPEPEPQPVTPAPPPAKKRRGRPPGRTNQPKQNQPTAIIQVEDQNTGAIENIIVEVKKEPDAEPAEGEEEEAQPAATDAPNGDLTPEMILSMMDR
modifications: [35S]methionine-labeled
